{"source": "patent US20230190880A1", "about": "“Formulations of Human Parathyroid Hormone (PTH) and Methods for Producing Same” (Sichuan Luzhou Buchang BIO-Pharmaceutical Co., Ltd., priority 2020, published 2023)", "test": "Forced oxidation of huPTH test formulation with 0.01% H2O2, analysed by SEC-HPLC, RP-HPLC and CEX-HPLC", "assay_type": "physicochemical", "details": "1 mg/mL PTH, 0.01% H2O2, versus standard reference sample", "note": "Part of at least one peptide drawing is inferred or uncertain, most often the ends."}
{"smiles": "CC[C@H](C)[C@H](NC(=O)[C@H](CCC(=O)O)NC(=O)[C@H](CO)NC(=O)[C@@H](NC(=O)[C@@H](N)CO)C(C)C)C(=O)N[C@@H](CCC(N)=O)C(=O)N[C@@H](CC(C)C)C(=O)N[C@@H](CCSC)C(=O)N[C@@H](Cc1c[nH]cn1)C(=O)N[C@@H](CC(N)=O)C(=O)N[C@@H](CC(C)C)C(=O)NCC(=O)N[C@@H](CCCCN)C(=O)N[C@@H](Cc1c[nH]cn1)C(=O)N[C@@H](CC(C)C)C(=O)N[C@@H](CC(N)=O)C(=O)N[C@@H](CO)C(=O)N[C@@H](CCSC)C(=O)N[C@@H](CCC(=O)O)C(=O)N[C@@H](CCCNC(=N)N)C(=O)N[C@H](C(=O)N[C@@H](CCC(=O)O)C(=O)N[C@@H](Cc1c[nH]c2ccccc12)C(=O)N[C@@H](CC(C)C)C(=O)N[C@@H](CCCNC(=N)N)C(=O)N[C@@H](CCCCN)C(=O)N[C@@H](CCCCN)C(=O)N[C@@H](CC(C)C)C(=O)N[C@@H](CCC(N)=O)C(=O)N[C@@H](CC(=O)O)C(=O)N[C@H](C(=O)N[C@@H](Cc1c[nH]cn1)C(=O)N[C@@H](CC(N)=O)C(=O)N[C@@H](Cc1ccccc1)C(=O)O)C(C)C)C(C)C", "note": "[huPTH]", "values": [{"measurement": "CEX-HPLC main peak after forced oxidation", "value": "main peak shifts to an earlier elution time, indicating less positively charged species"}, {"measurement": "RP-HPLC main peak after forced oxidation", "value": "main peak splits into four eluting peaks, indicating more hydrophilic species"}, {"measurement": "SEC-HPLC main peak after forced oxidation", "value": "main peak shifts to an earlier elution time, indicating aggregation"}]}
